Source: PubChem BioAssay AID493014 (National Center for Advancing Translational Sciences (NCATS), 2011)
Some of the results follow. These are further read-outs of the screen, such as a control signal, another cell line or another target. No call is given for them. The list favours compounds with an active or inconclusive main result. Words in brackets tell the shape of the fitted curve; partial curves, single points and poor fits give uncertain potencies.

Assay: qHTS Assay to Find Inhibitors of Chronic Active B-Cell Receptor Signaling
Details: ABC-DLBCL IkBa-CBG/CBR reporter, luminescence ratio (green luciferase fused to IkBa over red control in TMD8 lymphoma cells), 4 h
Procedure, shortened: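 Compounds up to 46 uM were incubated four hours with TMD8 cells whose green CBG68 luciferase is fused to IkappaBalpha; red CBR luminescence normalised the signal, and concentration-effect curves were fitted to fusion, red and ratio data.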

[1] = measured here: CBR red luminescence, cell number
[2] = measured here: IkBa-CBG green luminescence

For `CCOc1ccc2[nH]c(C(=O)N/N=C/c3cc(OC)c(OC)c(OC)c3)cc2c1`, the AC50 [1] was 5.62 µM [falling, single point].
In the case of `CC1=NN(c2ccc(C(=O)O)cc2)C(=O)/C1=C/c1ccc(-c2ccccc2F)o1`, the AC50 [1] is reported as 3.16 µM [falling, full curve].
In the case of `O=C(CNC(=O)c1cccs1)N/N=C/c1ccccc1[N+](=O)[O-]`, the AC50 [1] is reported as 7.94 µM [falling, partial curve].
With `COCCCNC(=O)CC(=O)N/N=C\c1ccc(SC)cc1` the AC50 [2] was 35.5 µM [falling, single point].
For `CC(Cn1cncn1)C(=O)N1CCN(S(=O)(=O)c2ccc(Cl)cc2)CC1` (stereo not given), the AC50 [1] was 3.55 µM [falling, partial curve, poor fit].
In the case of `CCC(COC(C)=O)Nc1nc2c([nH]1)c(=O)n(C)c(=O)n2C` (stereo not given), the AC50 [1] is reported as 3.98 µM [falling, full curve, poor fit].
For `Cc1cccc(NC(=O)c2ccccc2OCC(=O)N2CCCC2)c1C`, the AC50 [1] was 10 µM [rising, partial curve].
With `CCC(CC)C(=O)c1c[nH]c(C(=O)OC)c1` the AC50 [1] was 7.94 µM [rising, partial curve].
For `COc1cc(SC)ccc1C(=O)NCCc1c[nH]c2ccccc12`, the AC50 [1] was 10 µM [falling, partial curve].
For `O=C(NCc1ccco1)c1sc2cc(Cl)ccc2c1Cl`, the AC50 [1] was 1.3 µM [rising, full curve, poor fit].
In the case of `FC(F)(F)c1cccnc1Oc1ccc(C2=NCCS2)cc1`, the AC50 [1] is reported as 35.5 µM [rising, single point].
With `COCCNS(=O)(=O)c1cc(OC)c(C)cc1C` the AC50 [1] was 2.51 µM [rising, partial curve].
With `Cc1ccc2cc(COC(=O)c3ccco3)c(=O)[nH]c2c1` the AC50 [1] was 1.64 µM [falling, partial curve, poor fit].
For `CC(C)Cn1c(N)c(C(=O)COC(=O)c2ccc3c(c2)OCCO3)c(=O)n(C)c1=O`, the AC50 [1] was 0.58 µM [rising, partial curve, poor fit].
With `O=C(O)c1cccc(CSc2ncccn2)c1` the AC50 [1] was 29.1 µM [falling, single point].
In the case of `O=C(COC(=O)c1cc(=O)[nH]c(=O)[nH]1)Nc1cccc(S(=O)(=O)N2CCOCC2)c1`, the AC50 [1] is reported as 6.31 µM [rising, single point].
In the case of `O=C(O)CCn1cc(/C=C2/NC(=S)N(c3ccccc3)C2=O)c(-c2ccccc2)n1`, the AC50 [1] is reported as 18.4 µM [rising, partial curve, poor fit].
With `CN(C)c1ccc(S(=O)(=O)NCC(=O)NCCC2=CCCCC2)cc1[N+](=O)[O-]` the AC50 [1] was 1.03 µM [rising, full curve, poor fit].
In the case of `COc1cc(C(=O)Oc2cccc(/C=N/NC(=O)c3cc(C)[nH]n3)c2)cc(OC)c1OC`, the AC50 [1] is reported as 14.1 µM [falling, partial curve].
In the case of `CCOC(=O)c1sc2nc(N3CCOCC3)c3c(c2c1N)CC(C)(C)N(C)C3`, the AC50 [1] is reported as 0.501 µM [rising, full curve, poor fit].
For `CC(C)c1ccc(/C=C2\SC(N3CCCC3)=NC2=O)cc1`, the AC50 [1] was 20.6 µM [rising, partial curve, poor fit].
For `Cc1cccc(C)c1OC(=O)CSc1nnc(-c2ccccc2O)o1`, the AC50 [1] was 3.26 µM [rising, full curve].
With `Cc1cccc(NC(=O)CN2CCN(C(=O)c3cnn(Cc4ccccc4)c3)CC2)c1C` the AC50 [1] was 2.91 µM [rising, partial curve, poor fit].
In the case of `COc1ccc(C(=O)c2cn[nH]c2-c2cc(C)ccc2O)cc1`, the AC50 [1] is reported as 3.98 µM [falling, single point].
For `CCOC(=O)c1ccc(N2NC(=O)/C(=C/c3ccc(OC(=O)c4ccco4)c(OC)c3)C2=O)cc1`, the AC50 [1] was 2.59 µM [falling, partial curve, poor fit].
For `O=C1c2oc3ccc(Cl)cc3c(=O)c2C(c2ccccn2)N1CCCN1CCOCC1` (stereo not given), the AC50 [1] was 32.6 µM [rising, single point].
With `CCN(Cc1nc2cc(Cl)ccc2c(=O)[nH]1)C(=O)c1cccc(OCc2c(C)noc2C)c1` the AC50 [1] was 23.1 µM [falling, single point].
With `COC(=O)c1cc(NC(=O)CN(c2ccc(OC)cc2)S(=O)(=O)c2ccc(F)cc2)ccc1Cl` the AC50 [1] was 5.8 µM [falling, full curve] and the AC50 [2] was 32.6 µM [rising, partial curve, poor fit].
For `CCn1c(O)c(C=NCc2cccs2)c(=O)n(CC)c1=S`, the AC50 [1] was 4.11 µM [falling, full curve, poor fit].
For `CCN(CC)S(=O)(=O)c1ccc(C)c(NC(=O)CSc2ncc(C(F)(F)F)cc2Cl)c1`, the AC50 [1] was 29.1 µM [rising, single point].
In the case of `Nc1ccc(C(=O)N/N=C/c2cccc(Oc3ccccc3)c2)cc1`, the AC50 [1] is reported as 20 µM [falling, partial curve, poor fit].
In the case of `CC(=O)N1CCN=C1SCc1cccc(C)c1`, the AC50 [1] is reported as 35.5 µM [rising, single point].
For `CS(=O)(=O)c1ccc(Cl)c(NC(=O)c2cccc(-n3cnnn3)c2)c1`, the AC50 [1] was 0.0411 µM [rising, partial curve, poor fit].
In the case of `COc1ccccc1NC(=O)Nc1cc(F)ccc1F`, the AC50 [1] is reported as 1 µM [rising, full curve, poor fit].
For `Cc1[nH]c2ccccc2c1C(=O)C(=O)N(C)C1CCCCC1`, the AC50 [1] was 10 µM [rising, partial curve, poor fit].
In the case of `O=C(/C=C/Nc1ccccc1O)c1ccco1`, the AC50 [1] is reported as 11.2 µM [falling, partial curve].
For `O=C(NCc1ccccc1)C1CCCN1C(=O)Nc1ccccc1[N+](=O)[O-]` (stereo not given), the AC50 [1] was 35.5 µM [rising, single point].
With `CCCN(CCC)c1nc(-c2ccccn2)nc2ccccc12` the AC50 [1] was 35.5 µM [falling, single point].
With `Cc1nc2cc(NC(=O)NCc3ccco3)ccc2o1` the AC50 [1] was 18.4 µM [falling, single point].
In the case of `CN(CC(=O)Nc1c(Cl)cccc1Cl)C(=O)c1ccc(-n2cncn2)c([N+](=O)[O-])c1`, the AC50 [1] is reported as 14.6 µM [falling, partial curve, poor fit].
In the case of `Cc1ccc(S(=O)(=O)NC(CC(C)C)C(=O)N2CCN(C/C=C/c3ccccc3)CC2)cc1` (stereo not given), the AC50 [1] is reported as 18.4 µM [falling, single point].
For `O=C(CCn1nc(-c2ccccc2)c2ccccc2c1=O)N1CCN(c2ccccc2)CC1`, the AC50 [1] was 20.6 µM [falling, single point].
In the case of `CCCCNC(=O)Nc1nc2ccccc2s1`, the AC50 [1] is reported as 10 µM [falling, partial curve, poor fit].
For `COc1ccc(-c2noc(CCC(=O)O)n2)cc1`, the AC50 [1] was 4.11 µM [falling, partial curve] and the AC50 [2] was 1.03 µM [rising, full curve, poor fit].
For `CCN1/C(=C/C(=S)Nc2ccccc2)Sc2ccccc21`, the AC50 [1] was 20 µM [falling, partial curve, poor fit].
With `O=S(=O)(c1ccc(SCc2cccc(Cl)c2)nc1)N1CCCC1` the AC50 [1] was 6.51 µM [rising, partial curve, poor fit].
For `Cc1cc(C)c2cc(CN(CCO)C(=O)Nc3ccc(F)cc3)c(=O)[nH]c2c1`, the AC50 [1] was 18.4 µM [falling, single point].
In the case of `O=C(N/N=C/C1CC=CCC1)c1ccc(O)cc1O` (stereo not given), the AC50 [1] is reported as 7.31 µM [falling, partial curve].
With `Cc1ccc2nc(N3C(=O)C(O)=C(C(=O)c4ccc(C)o4)C3c3ccc(O)cc3)sc2c1` (stereo not given) the AC50 [1] was 0.58 µM [falling, full curve].
For `COc1ccc2nc(SCC(=O)Nc3ccccc3C#N)[nH]c2c1`, the AC50 [1] was 35.5 µM [rising, single point].
With `COC(=O)c1c(-c2ccc(OC)cc2)sc2cc3c(cc12)OCO3` the AC50 [1] was 18.4 µM [rising, partial curve].
With `CS(=O)(=O)N(CC(=O)NCCSCc1c(F)cccc1Cl)c1ccc2c(c1)OCO2` the AC50 [1] was 3.26 µM [rising, full curve, poor fit] and the AC50 [2] was 29.1 µM [falling, partial curve, poor fit].
In the case of `Cc1cc(NS(=O)(=O)c2ccc(NC(=O)Nc3cccc(C(F)(F)F)c3)cc2)no1`, the AC50 [1] is reported as 2.24 µM [falling, partial curve, poor fit].
With `COc1cc(OC)cc(C(=O)N/N=C(\C)CC(=O)Nc2ccccn2)c1` the AC50 [1] was 0.562 µM [falling, full curve, poor fit] and the AC50 [2] was 12.6 µM [falling, partial curve].
In the case of `CCOc1ccc(-n2c(SCc3nc(-c4ccc(C)cc4)no3)nnc2-c2ccncc2)cc1`, the AC50 [1] is reported as 29.1 µM [falling, single point].
For `COc1cccc(OC)c1/C=C/C(=O)NC1CCCCC1`, the AC50 [1] was 7.94 µM [falling, partial curve, poor fit].
In the case of `CCc1cccc(NC(=O)Cn2c(=O)n3nc(-c4cccc(F)c4)nc3c3ccccc32)c1`, the AC50 [1] is reported as 7.94 µM [rising, partial curve, poor fit].
With `COc1ccc(NC(=O)CSc2nnc3ccc(-c4cccnc4)nn23)c(OC)c1` the AC50 [1] was 1.3 µM [falling, full curve, poor fit].
With `CCN(CC(=O)Nc1ccc2c(c1)OCCO2)C(=O)c1cccc(OCC(C)C)c1` the AC50 [1] was 10 µM [falling, single point].
For `COc1ccc2[nH]c3c(c2c1)CCN1C(=O)N([C@@H](C)C(=O)NCCc2ccc(F)cc2)C(=O)[C@]31C`, the AC50 [1] was 10 µM [falling, partial curve, poor fit].
In the case of `O=C(CCc1nc2ccccc2c(=O)[nH]1)NNC(=O)COc1cccc(F)c1`, the AC50 [1] is reported as 5.8 µM [rising, partial curve, poor fit].
